According to article PMC11750091:
No constants are given. Whether binding was seen depends on the method and setting. Some entries that bind do so weakly or less than the wild type. Where a sequence is shown, tags or fusion partners need not be part of it. Blank lines part the entries; values can stand above or below the binder they belong to.

Molecular target: T1, BD-PoFbx23 (CDS of fbx23 in pGBKT7) (Penicillium oxalicum) (UniProt S7ZS07)
T1 sequence: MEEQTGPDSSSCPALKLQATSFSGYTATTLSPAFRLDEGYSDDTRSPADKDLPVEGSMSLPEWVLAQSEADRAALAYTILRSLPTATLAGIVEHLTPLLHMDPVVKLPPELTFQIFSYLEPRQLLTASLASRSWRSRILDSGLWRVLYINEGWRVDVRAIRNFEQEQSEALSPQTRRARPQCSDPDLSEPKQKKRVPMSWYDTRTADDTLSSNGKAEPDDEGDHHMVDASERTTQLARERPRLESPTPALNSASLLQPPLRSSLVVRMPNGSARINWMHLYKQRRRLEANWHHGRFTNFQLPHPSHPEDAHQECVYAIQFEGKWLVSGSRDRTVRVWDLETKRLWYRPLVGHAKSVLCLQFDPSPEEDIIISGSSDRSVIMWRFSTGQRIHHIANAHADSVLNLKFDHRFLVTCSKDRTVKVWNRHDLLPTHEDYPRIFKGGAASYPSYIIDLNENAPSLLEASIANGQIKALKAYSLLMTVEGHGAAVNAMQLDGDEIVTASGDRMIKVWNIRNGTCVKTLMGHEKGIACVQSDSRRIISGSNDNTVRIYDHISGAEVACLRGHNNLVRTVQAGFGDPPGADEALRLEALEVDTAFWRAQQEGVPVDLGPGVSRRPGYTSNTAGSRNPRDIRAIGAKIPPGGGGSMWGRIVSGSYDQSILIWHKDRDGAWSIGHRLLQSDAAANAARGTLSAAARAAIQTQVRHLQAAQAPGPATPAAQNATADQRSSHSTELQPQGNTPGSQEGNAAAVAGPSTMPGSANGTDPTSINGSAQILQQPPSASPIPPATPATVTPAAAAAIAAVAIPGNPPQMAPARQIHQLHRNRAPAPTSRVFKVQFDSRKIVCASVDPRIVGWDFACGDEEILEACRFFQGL
Experiment: two-hybrid; Y2H Gold-BD-PoFbx23 mated with Y187-AD-PoAce1 fragments; growth on QDO (SD-Ade/-His/-Leu/-Trp) and QDO/X-alpha-gal/Aba

binding: binds
B1: AD-PoAce1 (1-396 aa) (domain or fragment, UniProt S8AYJ0 1-396)
chain: MASTQFESTRVHPRRRPVVNTSSNLAKTDEEPTASKLQLKKGETFNAPTSPPSAESDPVMNIRSLPHRSPTSLDALAASEESMSSIFERLNLDENSEGQGASTDNQSAGASTLNSAADKDEHNPFPSVKKVSTQQEDHDHDSDSGLGSSVSDCDSMSEISEQDNHDASVEQDSTITSPIAASQGTNPRHQLPLSACKQIERYLLVPLLKEPKLEDFHPLVRSVPTRIANKQIVCLRDLEKILLWLAPKFSKSRSSYLSFCEYTIQCLHTSVSHLNAKDQRLPADRPYTNGYFLDLVTQVRRYAAMVQASKAEALQSNKDKPSVPPASLQGGLSVNGCAAELVIMTDGQVISLATGKPFEGAVSIKRAHETVDEVTDEGVVRSMARRKKNAPPMDIN

binding: binds
B2: AD-PoAce1 (484-816 aa) (domain or fragment, UniProt S8AYJ0 484-815)
chain: GWKYNRQKSNSRARGSKSKRGTSLRAASHQDSPSTPDAMTPASGQTDFNTPSLGPTPSPCEPSLIYSDGSSFINFADPPAPVPGNGYSAFYNASVVNQPEAAMSYQASPEGTAPSYQTPRTYQTSPDATMAHDFQFTAEDIANLGSLGSLEAQFAMGNPNELVSHLNMHQSIVASMSSVPSASSVPDLSGSVSASQGNSPCAPAASGGNLCDNIDWTRVEYSLQNNINDLHGGNDNGNDQAMMMSGLSPTAQGHLMLFSPDNGLAAANIGASFPYGGQDMQQNLQDFSGQELQDFTLFETPMPTYPAANLTDPAFNWVGGPWPGMDKAIAFD
